Source: publication doi:10.1101/521369
No constants are given. Whether binding was seen depends on the method and setting. Binding seen in cells or lysates may run through a third protein. A yes stands for co-enrichment or nearness to the bait. Other partners may have been found. For some assays here: No binding means not detected with the bait.

By UniProt entry, the sequences of proteins in these tests, tags left out.
UniProt Q9QZ81: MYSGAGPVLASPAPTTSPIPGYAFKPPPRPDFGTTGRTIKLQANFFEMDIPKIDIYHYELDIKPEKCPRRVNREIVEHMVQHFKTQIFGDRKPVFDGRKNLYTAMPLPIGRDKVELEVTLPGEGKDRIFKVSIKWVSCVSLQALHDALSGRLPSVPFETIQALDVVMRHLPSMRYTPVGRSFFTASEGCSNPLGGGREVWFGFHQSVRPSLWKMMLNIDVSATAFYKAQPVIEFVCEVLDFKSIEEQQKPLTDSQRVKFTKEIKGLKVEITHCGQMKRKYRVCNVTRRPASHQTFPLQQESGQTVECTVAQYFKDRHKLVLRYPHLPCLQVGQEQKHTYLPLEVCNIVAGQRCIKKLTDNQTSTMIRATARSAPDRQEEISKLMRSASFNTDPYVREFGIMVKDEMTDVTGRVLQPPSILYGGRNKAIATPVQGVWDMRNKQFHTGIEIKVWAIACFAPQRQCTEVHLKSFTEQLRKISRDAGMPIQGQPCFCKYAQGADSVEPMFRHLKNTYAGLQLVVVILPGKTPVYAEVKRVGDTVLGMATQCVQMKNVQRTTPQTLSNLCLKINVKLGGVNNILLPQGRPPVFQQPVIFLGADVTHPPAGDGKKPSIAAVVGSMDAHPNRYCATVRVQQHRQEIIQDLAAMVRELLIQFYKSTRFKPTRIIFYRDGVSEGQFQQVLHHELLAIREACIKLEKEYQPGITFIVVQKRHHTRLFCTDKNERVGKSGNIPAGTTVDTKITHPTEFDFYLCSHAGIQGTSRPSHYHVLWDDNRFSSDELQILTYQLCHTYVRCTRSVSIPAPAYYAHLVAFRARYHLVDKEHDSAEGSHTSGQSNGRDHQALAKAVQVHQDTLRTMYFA

Assays:
[1] = target: T1, phospholipase Cβ1 (PLCβ1), endogenous (rat (endogenous in PC12 and A10)) (UniProt P10687); assay: affinity purification with mass spectrometry
T1 sequence: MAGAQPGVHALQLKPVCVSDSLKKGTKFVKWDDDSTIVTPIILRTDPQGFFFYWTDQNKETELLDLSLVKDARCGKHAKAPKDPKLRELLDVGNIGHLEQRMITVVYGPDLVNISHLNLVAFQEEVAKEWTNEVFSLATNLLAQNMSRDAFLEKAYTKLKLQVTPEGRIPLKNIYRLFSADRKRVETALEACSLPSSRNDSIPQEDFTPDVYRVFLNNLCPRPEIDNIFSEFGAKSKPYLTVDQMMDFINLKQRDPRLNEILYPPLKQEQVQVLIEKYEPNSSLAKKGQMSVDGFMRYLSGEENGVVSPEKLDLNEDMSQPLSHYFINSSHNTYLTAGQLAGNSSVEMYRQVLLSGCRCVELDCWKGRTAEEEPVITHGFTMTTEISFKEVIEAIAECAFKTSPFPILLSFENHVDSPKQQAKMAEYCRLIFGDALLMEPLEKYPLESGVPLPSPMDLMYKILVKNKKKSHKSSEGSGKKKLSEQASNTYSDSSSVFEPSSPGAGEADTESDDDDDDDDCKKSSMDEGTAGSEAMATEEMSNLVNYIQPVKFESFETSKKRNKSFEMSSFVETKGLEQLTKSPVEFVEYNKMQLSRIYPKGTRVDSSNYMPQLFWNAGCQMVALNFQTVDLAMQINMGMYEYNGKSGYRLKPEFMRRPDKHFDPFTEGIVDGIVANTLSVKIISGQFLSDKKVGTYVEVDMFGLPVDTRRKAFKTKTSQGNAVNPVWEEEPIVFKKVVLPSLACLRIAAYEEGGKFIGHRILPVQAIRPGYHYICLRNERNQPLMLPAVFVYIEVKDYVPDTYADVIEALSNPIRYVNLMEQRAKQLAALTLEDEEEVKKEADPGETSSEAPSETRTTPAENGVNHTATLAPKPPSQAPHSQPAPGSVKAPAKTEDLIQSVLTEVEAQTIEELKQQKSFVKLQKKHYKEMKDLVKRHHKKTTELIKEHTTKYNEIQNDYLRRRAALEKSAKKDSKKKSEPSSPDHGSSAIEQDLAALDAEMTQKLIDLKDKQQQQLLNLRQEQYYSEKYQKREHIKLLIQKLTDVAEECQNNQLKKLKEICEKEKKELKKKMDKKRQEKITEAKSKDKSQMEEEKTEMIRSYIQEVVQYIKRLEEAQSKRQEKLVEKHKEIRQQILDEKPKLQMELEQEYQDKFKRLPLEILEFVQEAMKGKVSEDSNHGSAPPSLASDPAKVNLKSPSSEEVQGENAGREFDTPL

[2] = target: argonaute 2 (Ago2), endogenous (rat (endogenous in PC12 and A10)) (UniProt Q9QZ81); assay: affinity purification with mass spectrometry

binding [1]: binds | binding [2]: no binding
B1: eIF5B, endogenous (protein, UniProt B2GUV7 1-1216)
chain: MGKKQKNKSEDSTKDDTDLGALAAEIEGAGAAKEQEPQKGKGKKKKEKKKQDFDENDILRELEELSLEAQGIGADRDAATVKPTENNEEESASKQDKKKKGQKGKKTSFDENDSEELEDKDSKSKKPARPNSEVLLSGSEDADDPNKLSKKGKKAQKSTKKRDGSEEDEDNSKRSKERSRVNSSGESGGESDEFLQSRKGQKKNQKNKSVPTIDSGNEDDDSSFKIKTVAQKKAEKKERERKKREEEKAKLRKVKEKEELEKGRKEQSKQREPQKRPDEEVLVLRGTPDAGAASEEKGDIAATLEDDNEGDKKKKDKKKKKTEKDDKEKEKKKGPSKSTVKAIQEALAKLREEEERQKREEEERIKRLEELEAKRKEEERLEQEKRERKKQKEKERKERLKKEGKLLTKSQREARARAEVTLRHLQAQGVEVPSKDSLPKKRPVYEDKKKKKTPQQLESKEALETVEVSAPVEVVDQGVPEKEETPPSVDAEEDEETEDAGLDDWEAMASDEEREKEGNMIHIEVEENPEEEEEEEEDEDEEDSEDEEDEGDSEGSDGDEEDYKLSDEKDLGKAGDTKPNKDASSDSEYDSDDDRTKEERAYDKAKRRIEKRRLEHGKNVNTEKLRAPIICVLGHVDTGKTKILDKLRHTHVQDGEAGGITQQIGATNVPLEAINEQTKMIKNFDRENVRIPGMLIIDTPGHESFSNLRNRGSSLCDIAILVVDIMHGLEPQTIESINILKSKKCPFIVALNKIDRLYDWKKSPDSDVAVTLKKQKKNTKDEFEERAKAIIVEFAQQGLNAALFYENKDPRTFVSLVPTSAHTGDGMGSLIYLLVELTQTMLSKRLAHCEELRAQVMEVKALPGMGTTIDVILINGRLKEGDTIIVPGVEGPIVTQIRGLLLPPPMKELRVKNQYEKHKEVEAAQGVKILGKDLEKTLAGLPLLVAYKDDEIPVLKDELIHELKQTLNAIKLEEKGVYVQASTLGSLEALLEFLKTSEVPYAGINIGPVHKKDVMKASVMLEHDPQYAVILAFDVRIERDAQEMADSLGVRIFSAEIIYHLFDAFTKYRQDYKKQKQEEFKHIAVFPCKMKILPQYIFNSRDPIVIGVTVEAGQVKQGTPMCVPSKNFVDIGIVTSIEINHKQVDVAKKGQEVCVKIEPIPGESPKMFGRHFEATDILVSKISRQSIDALKDWFRDEMQKSDWQLIVELKKVFEII
